This note sets out measurements from patent US20080044390A1, “Methods and compositions for the treatment of neurodegenerative disorders” (priority 2006, published 2008).

This assay relates to PC12/HttN90Q103 cells. Put plainly: ATPlite assay, rescue of HttN90Q103-induced cell death. Conditions: single agent. The class given is cell-based, rat. The text has this: In this stable PC12 line (PC12/HttN90Q103), transcription of the Htt transgene is driven by an ecdysone-regulated promoter such that the expression of HttN90Q103 can be turned on or off by the addition or removal of the non-steroidal ecdysone analog tebufenozide (teb).
Using the engineered PC12/HttN90Q103 cell line together with Perkin Elmer's ATPlite™ assay kit or CellTiter-Blue™ assay, a high throughput assay to screen small molecules for their ability to prevent mutant Htt exon 1-induced cell death was developed and optimized.
The following formulas were used to calculate mutant Htt-induced cytotoxicity and test compound rescue: % killing=[(un-induced−induced-DMSO treated)/un-induced]×100 % rescue=[(drug treated−induced-DMSO treated)/(un-induced−induced-DMSO treated)]×100
For single-agent ranking, the assay was performed in 384-well plates to obtain duplicate dose response curves in 12-step dilutions with a dosing ratio f=2 over 3 orders of magnitude. […]
Day 4—Perform ATPlite™ Assay • 1) Take plates out of the incubator. • 2) Using the PlateMate, add 40 μL of ATPlite™ 1-step solution (Perkin Elmer) to each well of the assay plates. • 3) Wait ten minutes to allow plates to dark-adapt. • 4) Read luminescence intensity in Wallac plate reader using […]

Turning to `O=C1NC(=O)C(c2ccccc2[N+](=O)[O-])=C1Nc1ccc(O)c(Cl)c1` [SB-415286], where the note is “250 nM tebufenozide induction”, the “Max Effect (% rescue)” value is on record as 52%. For the same compound, the EC50 (sigmoidal fit of 12-step dose response) came to 12.9 µM.
